Measured values published in article PMC6502797.
No constants are given. Whether binding was seen depends on the method and setting. Some binding calls cover weakened binding; strength is not graded here.

By UniProt entry, the sequences of proteins in these tests, tags left out. Where a name states a change or a piece, a line headed by the entry shows the natural chain unless it says otherwise. Residues count along the entry.
UniProt P16410, residues 36-161: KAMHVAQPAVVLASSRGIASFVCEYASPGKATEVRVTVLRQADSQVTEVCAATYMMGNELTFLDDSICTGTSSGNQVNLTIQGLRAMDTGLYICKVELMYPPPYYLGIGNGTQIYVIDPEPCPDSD

Molecular target: extracellular domain of CTLA-4 (yeast two-hybrid deletion construct of sCTLA-4) (human) (UniProt P16410)
Experiment: two-hybrid; deletion constructs of RGMB in pGADT7 and of sCTLA-4 in pGBK-T7, Y2H-Gold yeast, SD -TL agar with X-αGal (20 μg/ml)

NYLSVQVTNVPVVPGSSATATNKITIIFKA (domain or fragment, UniProt Q6NW40 193-222) [RGMB aa193-222 (yeast two-hybrid deletion fragment)]
binding: binds
